Test results published in PMC4022105.

Assays:
[1] = target: T1, Desmoglein 3 (Dsg3), endogenous (human (endogenous in HaCaT and human breast skin)) (UniProt P32926); experiment: co-IP; lysate of human breast skin epidermis in RIPA buffer, antibody on Dynabeads, overnight at 4 °C; pulled down with Dsg3 antibody (legend; the text says anti-actin antibody), Western blot
T1 sequence: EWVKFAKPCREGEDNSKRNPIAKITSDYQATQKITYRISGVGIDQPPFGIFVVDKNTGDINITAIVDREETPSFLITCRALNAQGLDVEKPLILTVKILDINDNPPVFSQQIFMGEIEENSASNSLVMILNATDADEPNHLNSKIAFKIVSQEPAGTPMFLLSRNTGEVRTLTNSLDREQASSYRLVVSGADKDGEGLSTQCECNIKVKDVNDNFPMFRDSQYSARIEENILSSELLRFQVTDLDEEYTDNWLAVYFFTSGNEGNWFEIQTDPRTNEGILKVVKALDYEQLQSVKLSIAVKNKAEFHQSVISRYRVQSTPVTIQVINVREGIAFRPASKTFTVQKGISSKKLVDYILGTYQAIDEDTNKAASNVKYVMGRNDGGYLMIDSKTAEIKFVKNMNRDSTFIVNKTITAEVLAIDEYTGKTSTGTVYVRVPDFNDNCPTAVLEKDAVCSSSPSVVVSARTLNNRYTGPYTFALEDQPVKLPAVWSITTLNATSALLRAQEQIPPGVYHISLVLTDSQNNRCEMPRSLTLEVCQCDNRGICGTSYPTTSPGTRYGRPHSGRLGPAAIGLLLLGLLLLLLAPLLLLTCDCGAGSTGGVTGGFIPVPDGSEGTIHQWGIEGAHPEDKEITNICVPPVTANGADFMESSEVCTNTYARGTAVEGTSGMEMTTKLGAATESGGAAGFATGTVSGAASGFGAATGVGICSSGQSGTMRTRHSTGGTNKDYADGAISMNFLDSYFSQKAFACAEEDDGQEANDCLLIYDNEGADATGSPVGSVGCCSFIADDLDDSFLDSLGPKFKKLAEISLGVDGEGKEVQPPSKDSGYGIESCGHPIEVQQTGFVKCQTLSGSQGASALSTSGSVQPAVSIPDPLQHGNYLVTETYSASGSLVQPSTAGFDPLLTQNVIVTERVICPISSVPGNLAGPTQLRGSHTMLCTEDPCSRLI

[2] = target: T1, Desmoglein 3 (Dsg3), endogenous (human (endogenous in HaCaT and human breast skin)); experiment: co-IP; Triton X-100 soluble fraction of HaCaT cells (1% Triton X-100 lysis buffer, 150 mM NaCl, EGTA, EDTA), pulled down with mouse anti-Dsg3 antibody, Western blot
[3] = target: T1, Desmoglein 3 (Dsg3), endogenous (human (endogenous in HaCaT and human breast skin)); experiment: co-IP; HaCaT lysate in RIPA buffer (1% NP-40), antibody on Dynabeads, overnight at 4 °C; pulled down with Dsg3 antibody (legend; the text says anti-actin antibody), Western blot

Measured: binding

E-cadherin, endogenous
binds: all assays above

These are yes or no findings as the source states them, for the method shown. In cells and extracts the contact can be indirect. A result given as binding can be weak or reduced; the word gives no strength.
